According to the supplement of paper PMC12823440, “Inhibitors supercharge kinase turnover through native proteolytic circuits” (Nature, 2025):
Structures can show the parent of a compound that is named as a salt. The list shows a part of the results. Hit calls seldom repeat between salt and free forms of one compound.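 Kinases were expressed as nanoluciferase fusions in K562 cells and luminescence was read every 4 h between 2 and 18 h as percent of control, DMSO set to 100% and a positive control to 0%. A time point counts as decreased when the signal drops significantly (2 sigma). The hit call is the authors' own, does not follow from the count of time points alone, and its rule is not shown.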

By UniProt entry, the sequences of proteins in these tests, tags left out. Where a name states a change or a piece, a line headed by the entry shows the natural chain unless it says otherwise.
UniProt P06241, whole entry, looked up: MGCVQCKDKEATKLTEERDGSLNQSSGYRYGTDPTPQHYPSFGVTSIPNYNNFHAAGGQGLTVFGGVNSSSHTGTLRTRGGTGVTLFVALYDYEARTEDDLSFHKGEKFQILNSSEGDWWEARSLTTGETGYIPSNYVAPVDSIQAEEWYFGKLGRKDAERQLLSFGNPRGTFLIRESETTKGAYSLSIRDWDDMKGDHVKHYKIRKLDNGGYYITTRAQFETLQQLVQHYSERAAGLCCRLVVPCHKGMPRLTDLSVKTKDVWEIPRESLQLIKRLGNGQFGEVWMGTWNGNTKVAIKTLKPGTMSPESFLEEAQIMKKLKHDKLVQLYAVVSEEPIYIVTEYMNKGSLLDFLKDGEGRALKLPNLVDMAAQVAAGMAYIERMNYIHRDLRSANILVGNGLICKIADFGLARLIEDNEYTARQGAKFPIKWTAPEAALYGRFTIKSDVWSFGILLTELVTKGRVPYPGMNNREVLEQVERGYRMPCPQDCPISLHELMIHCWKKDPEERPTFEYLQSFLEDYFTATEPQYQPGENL
UniProt P49840: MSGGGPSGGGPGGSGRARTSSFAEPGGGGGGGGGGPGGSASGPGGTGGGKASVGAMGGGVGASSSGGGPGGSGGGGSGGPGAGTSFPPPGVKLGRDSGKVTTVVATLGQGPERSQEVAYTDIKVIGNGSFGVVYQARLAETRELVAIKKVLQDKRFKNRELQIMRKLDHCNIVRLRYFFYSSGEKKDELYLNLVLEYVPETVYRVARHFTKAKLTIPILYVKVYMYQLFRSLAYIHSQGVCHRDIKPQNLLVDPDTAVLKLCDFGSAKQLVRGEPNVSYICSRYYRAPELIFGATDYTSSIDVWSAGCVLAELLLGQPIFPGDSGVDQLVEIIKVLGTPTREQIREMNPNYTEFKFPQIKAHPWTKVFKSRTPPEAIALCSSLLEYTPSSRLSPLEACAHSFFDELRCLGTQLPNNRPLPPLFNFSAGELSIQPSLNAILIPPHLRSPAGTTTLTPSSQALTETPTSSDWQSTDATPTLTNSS
UniProt P14616: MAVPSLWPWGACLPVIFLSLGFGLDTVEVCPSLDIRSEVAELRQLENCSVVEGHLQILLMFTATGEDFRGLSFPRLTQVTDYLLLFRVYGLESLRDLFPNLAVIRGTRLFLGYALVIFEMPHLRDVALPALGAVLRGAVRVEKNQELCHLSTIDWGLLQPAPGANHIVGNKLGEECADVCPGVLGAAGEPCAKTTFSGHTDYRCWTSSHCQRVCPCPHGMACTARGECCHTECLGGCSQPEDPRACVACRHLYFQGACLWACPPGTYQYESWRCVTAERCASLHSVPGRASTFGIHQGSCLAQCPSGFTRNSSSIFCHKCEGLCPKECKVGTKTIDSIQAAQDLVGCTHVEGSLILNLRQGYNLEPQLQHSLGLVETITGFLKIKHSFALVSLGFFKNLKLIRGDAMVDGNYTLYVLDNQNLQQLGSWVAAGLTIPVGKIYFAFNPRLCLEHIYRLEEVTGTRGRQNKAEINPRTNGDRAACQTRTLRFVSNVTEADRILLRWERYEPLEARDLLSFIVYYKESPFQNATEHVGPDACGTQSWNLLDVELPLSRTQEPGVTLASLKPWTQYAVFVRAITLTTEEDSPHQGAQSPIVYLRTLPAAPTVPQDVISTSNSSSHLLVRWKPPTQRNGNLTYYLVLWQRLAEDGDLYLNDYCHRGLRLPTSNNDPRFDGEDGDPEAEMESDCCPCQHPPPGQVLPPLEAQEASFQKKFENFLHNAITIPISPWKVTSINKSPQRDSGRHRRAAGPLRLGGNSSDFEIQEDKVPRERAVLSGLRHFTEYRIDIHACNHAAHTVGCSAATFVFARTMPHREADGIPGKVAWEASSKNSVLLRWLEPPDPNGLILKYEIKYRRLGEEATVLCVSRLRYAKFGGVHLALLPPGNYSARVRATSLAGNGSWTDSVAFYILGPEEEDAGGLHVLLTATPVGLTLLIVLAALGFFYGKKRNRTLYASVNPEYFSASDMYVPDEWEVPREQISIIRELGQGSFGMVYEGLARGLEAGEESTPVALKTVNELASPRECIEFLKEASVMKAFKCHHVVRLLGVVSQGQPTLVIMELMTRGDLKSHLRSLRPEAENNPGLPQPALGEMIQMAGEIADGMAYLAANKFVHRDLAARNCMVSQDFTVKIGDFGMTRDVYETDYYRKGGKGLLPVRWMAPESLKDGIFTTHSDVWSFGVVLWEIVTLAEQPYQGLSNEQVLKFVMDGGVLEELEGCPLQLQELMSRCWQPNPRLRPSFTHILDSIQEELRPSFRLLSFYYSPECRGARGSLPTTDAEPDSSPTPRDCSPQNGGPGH
UniProt P06239: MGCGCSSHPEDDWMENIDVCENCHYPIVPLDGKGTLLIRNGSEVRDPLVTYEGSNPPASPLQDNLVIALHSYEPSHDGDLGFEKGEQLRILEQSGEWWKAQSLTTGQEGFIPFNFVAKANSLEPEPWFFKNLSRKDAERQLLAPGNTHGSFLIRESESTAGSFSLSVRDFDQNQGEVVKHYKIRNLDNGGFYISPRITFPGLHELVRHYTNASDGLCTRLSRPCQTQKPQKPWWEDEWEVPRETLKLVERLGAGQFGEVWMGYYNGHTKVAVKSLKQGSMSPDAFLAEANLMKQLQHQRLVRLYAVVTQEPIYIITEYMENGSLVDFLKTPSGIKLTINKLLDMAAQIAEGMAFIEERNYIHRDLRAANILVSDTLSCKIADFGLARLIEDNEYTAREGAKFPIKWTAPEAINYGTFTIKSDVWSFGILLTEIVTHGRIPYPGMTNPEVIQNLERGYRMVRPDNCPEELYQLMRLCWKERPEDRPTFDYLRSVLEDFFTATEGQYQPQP
UniProt Q8IWU2: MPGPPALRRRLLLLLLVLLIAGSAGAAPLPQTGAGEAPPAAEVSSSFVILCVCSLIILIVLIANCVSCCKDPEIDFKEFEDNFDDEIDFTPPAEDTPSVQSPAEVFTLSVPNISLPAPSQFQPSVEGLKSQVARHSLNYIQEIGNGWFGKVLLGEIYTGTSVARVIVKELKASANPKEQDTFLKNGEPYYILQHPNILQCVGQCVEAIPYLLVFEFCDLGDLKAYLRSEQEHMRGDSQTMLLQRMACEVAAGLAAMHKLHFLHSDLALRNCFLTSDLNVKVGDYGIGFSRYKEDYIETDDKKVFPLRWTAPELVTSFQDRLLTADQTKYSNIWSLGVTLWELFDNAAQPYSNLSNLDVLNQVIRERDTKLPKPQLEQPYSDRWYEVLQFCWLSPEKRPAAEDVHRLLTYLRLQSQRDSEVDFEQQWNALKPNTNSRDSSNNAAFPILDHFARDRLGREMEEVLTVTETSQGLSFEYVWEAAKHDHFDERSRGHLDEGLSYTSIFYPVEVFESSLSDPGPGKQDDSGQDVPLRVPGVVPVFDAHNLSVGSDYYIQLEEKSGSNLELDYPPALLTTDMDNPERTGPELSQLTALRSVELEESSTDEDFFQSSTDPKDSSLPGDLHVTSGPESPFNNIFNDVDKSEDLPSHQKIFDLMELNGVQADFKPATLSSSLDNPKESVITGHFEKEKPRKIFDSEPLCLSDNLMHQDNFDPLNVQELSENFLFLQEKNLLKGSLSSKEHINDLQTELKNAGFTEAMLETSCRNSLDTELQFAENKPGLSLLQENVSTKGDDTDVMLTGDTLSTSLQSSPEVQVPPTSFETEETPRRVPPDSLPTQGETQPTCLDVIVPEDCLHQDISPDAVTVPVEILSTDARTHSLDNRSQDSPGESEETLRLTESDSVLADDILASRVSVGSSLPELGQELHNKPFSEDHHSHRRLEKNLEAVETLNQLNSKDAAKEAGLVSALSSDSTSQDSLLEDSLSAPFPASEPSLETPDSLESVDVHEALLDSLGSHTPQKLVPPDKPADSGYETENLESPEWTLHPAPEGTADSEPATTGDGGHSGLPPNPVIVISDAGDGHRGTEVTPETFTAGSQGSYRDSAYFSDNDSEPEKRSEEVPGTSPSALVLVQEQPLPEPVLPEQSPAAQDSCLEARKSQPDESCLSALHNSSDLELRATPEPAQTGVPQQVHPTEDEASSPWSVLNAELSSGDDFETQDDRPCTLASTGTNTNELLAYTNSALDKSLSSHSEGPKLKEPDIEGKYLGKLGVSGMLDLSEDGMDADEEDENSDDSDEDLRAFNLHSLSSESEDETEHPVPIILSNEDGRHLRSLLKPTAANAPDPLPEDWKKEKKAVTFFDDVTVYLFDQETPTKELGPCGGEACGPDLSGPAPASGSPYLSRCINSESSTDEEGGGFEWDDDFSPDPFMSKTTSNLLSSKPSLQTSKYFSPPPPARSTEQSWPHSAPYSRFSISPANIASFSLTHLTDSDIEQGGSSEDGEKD
UniProt P28482, whole entry: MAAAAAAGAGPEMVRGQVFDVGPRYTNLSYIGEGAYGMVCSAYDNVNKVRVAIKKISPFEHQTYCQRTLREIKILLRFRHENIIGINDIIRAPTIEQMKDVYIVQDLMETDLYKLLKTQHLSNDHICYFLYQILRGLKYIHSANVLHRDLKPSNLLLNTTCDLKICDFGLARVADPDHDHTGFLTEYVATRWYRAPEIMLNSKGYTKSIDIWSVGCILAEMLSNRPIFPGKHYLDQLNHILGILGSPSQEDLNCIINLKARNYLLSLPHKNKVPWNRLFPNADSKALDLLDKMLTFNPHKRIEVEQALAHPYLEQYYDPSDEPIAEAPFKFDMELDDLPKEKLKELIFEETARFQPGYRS
UniProt P31152, whole entry: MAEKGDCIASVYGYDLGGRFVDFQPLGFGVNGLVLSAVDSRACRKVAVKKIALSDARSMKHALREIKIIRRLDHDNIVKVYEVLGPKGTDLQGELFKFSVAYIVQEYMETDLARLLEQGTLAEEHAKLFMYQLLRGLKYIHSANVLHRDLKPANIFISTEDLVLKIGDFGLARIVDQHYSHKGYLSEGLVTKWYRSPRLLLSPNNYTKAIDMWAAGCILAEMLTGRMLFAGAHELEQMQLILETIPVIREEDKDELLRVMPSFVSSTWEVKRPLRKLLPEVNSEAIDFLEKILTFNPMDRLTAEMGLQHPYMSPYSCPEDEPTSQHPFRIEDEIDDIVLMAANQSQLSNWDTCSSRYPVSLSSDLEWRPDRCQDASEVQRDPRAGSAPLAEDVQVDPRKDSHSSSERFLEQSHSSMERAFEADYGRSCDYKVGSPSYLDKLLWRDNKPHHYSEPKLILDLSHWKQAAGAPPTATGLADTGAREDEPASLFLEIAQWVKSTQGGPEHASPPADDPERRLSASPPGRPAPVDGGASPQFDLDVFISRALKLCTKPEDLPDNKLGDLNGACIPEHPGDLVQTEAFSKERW
UniProt P49137, whole entry, looked up: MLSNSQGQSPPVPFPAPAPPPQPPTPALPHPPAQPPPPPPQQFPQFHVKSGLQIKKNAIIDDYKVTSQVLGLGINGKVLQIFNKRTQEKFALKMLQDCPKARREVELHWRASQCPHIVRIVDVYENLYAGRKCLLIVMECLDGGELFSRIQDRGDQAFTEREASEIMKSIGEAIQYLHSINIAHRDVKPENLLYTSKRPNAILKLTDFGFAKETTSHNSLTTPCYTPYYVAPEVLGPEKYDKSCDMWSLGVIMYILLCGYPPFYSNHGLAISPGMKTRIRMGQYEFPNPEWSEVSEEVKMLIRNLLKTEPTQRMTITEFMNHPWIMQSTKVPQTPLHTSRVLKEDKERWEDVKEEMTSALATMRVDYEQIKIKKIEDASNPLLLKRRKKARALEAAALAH
UniProt Q9BUB5: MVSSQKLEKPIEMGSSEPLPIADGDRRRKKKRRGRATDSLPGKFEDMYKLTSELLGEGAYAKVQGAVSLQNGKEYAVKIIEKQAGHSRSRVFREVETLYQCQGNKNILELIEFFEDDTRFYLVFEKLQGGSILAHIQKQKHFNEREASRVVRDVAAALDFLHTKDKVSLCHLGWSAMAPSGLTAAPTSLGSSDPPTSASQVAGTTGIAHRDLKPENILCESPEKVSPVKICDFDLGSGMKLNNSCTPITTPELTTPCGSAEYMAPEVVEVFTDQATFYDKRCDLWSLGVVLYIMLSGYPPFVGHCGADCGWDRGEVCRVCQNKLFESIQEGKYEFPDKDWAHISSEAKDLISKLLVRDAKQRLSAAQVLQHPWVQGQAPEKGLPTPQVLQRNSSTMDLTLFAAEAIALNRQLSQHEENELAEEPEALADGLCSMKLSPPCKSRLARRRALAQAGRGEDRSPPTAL

Key:
Test in all cases: number of time points (of 5) at which kinase-Nluc abundance scored as decreased, DMSO-normalised (count); higher = more persistent destabilization
Details in all cases: K562; 2-18 h
FLT3 = FLT3 (UniProt P36888)
FYN = FYN (UniProt P06241)
GSK3A = GSK3A (UniProt P49840)
HER2 = HER2 (UniProt P04626)
INSRR = INSRR (UniProt P14616)
IRAK3 = IRAK3 (UniProt Q9Y616)
JAK1 = JAK1 (UniProt P23458)
LCK = LCK (UniProt P06239)
LIMK1 = LIMK1 (UniProt P53667)
LIMK2 = LIMK2 (UniProt P53671)
LMTK2 = LMTK2 (UniProt Q8IWU2)
LYN = LYN (UniProt P07948)
MAP2K1 = MAP2K1 (UniProt Q02750)
MAP2K2 = MAP2K2 (UniProt P36507)
MAP4K2 = MAP4K2 (UniProt Q12851)
MAPK1 = MAPK1 (UniProt P28482)
MAPK4 = MAPK4 (UniProt P31152)
MAPKAPK2 = MAPKAPK2 (UniProt P49137)
MKNK1 = MKNK1 (UniProt Q9BUB5)
NTRK2 = NTRK2 (UniProt Q16620)

Measured: number of time points

COc1ccc2cc(-c3nc(-c4ccc([S+](C)[O-])cc4)[nH]c3-c3ccncc3)ccc2c1 (stereo not given) [Tie2 kinase inhibitor 1] (2.5 µM)
0: all assays above

CN(c1ccc(NC(=O)Nc2ccc(OC(F)(F)F)cc2)cc1)c1ccnc(Nc2cccc(S(N)(=O)=O)c2)n1 (2.5 µM)
4: INSRR | IRAK3 | LIMK1
3: FYN | LIMK2 | LMTK2 | MKNK1
1: MAPK4 | NTRK2
2: FLT3 | HER2 | JAK1
0: all other assays above

O=C(O)c1cccc(CN2C(=O)/C(=C(\c3ccccc3)c3ccc(Cl)cc3)c3ccccc32)c1 (2.5 µM)
0: all assays above

C[C@H](Nc1ncnc2[nH]cnc12)c1cc2ccc(F)cc2nc1-c1ccccn1 (10 µM)
0: all assays above

CC(C)c1cccc(C(C)C)c1N1C(=O)c2ccc(N)cc2C1=O (2.5 µM)
0: all assays above

Cc1cc(C)nc(NS(=O)(=O)c2ccc(NC(=S)NC(=O)COc3ccc(Br)cc3Cl)cc2)n1 (2.5 µM)
0: all assays above

CN1CCC(c2ccccc2CC(C)(C)Nc2nc(N3CCOCC3)nc(-n3c(C(F)F)nc4ccccc43)n2)CC1 [Zandelisib] (10 µM)
0: all assays above

CCN(CC)CCC(=O)N1N=C(c2c(-c3ccccc3)c3cc(Br)ccc3[nH]c2=O)CC1c1ccc(Br)cc1 (stereo not given) (2.5 µM)
1: FYN
0: all other assays above

COc1ccc2cc3[n+](cc2c1OC)CCc1cc(O)c(O)cc1-3 [Demethyleneberberine] (10 µM)
0: all assays above

CC(C)N1CCN(c2ccc(Nc3ncc4cc5n(c4n3)C3(CCCCC3)CNC5=O)nc2)CC1 [Lerociclib (dihydrochloride)] (2 µM)
3: IRAK3 | NTRK2
2: LMTK2
0: all other assays above

COc1ccc(/C=C/C(=O)C2(C(=O)/C=C/c3ccc(OC)c(OC)c3)CCCCC2)cc1OC (2.5 µM)
1: HER2 | INSRR
2: FYN
0: all other assays above

CC(C)(O)[C@H]1CC[C@H](Nc2ccc3ncc(-c4cccc(C(F)(F)F)c4)n3n2)CC1 (10 µM)
0: all assays above

O[C@@H]1CO[C@H]2[C@@H]1OC[C@H]2Oc1nc2nc(-c3ccc(-c4ccccc4)cc3)c(Cl)cc2[nH]1 (10 µM)
1: LMTK2
0: all other assays above

Nc1ncnc2c1c(-c1ccc(Oc3ccccc3)cc1)nn2C1CCN(CCOCCOCCOc2ccc3c(c2)CN(C2CCC(=O)NC2=O)C3=O)CC1 (stereo not given) (2.5 µM)
0: all assays above

COc1cc(N(C)CCN(C)C)c(N)cc1Nc1nccc(-c2cn(C)c3ccccc23)n1 [Mutated EGFR-IN-1] (10 µM)
2: LIMK1
1: FYN
0: all other assays above

Cn1cc(C2=C(c3cccc(N)c3)C(=O)NC2=O)c2ccccc21 (10 µM)
0: all assays above

O=c1cc(-c2cccc3c2Sc2ccccc2S3)oc(N2CCOCC2)c1 (10 µM)
0: all assays above

CC(C)c1cc(/C=C(\C#N)C(=O)NCCCc2ccccc2)cc(C(C)C)c1O (10 µM)
0: all assays above

CC(C)(C[C@H](N)C(=O)O)C(F)F [NV-5138 (hydrochloride)] (10 µM)
0: all assays above

O=C(N[C@@H](C1CC1)C(F)(F)F)c1cc(-c2cnn3cc(-c4ccc(F)cc4)cnc23)cs1 (10 µM)
2: FYN
0: all other assays above

Some of these compounds in order of length of the SMILES, ascending:
CC(C)(C[C@H](N)C(=O)O)C(F)F [NV-5138 (hydrochloride)] (10 µM)
0: all assays above

Cn1cc(C2=C(c3cccc(N)c3)C(=O)NC2=O)c2ccccc21 (10 µM)
0: all assays above

CC(C)c1cc(/C=C(\C#N)C(=O)NCCCc2ccccc2)cc(C(C)C)c1O (10 µM)
0: all assays above

(list continues)

CNc1nc(Nc2ccc(C(=O)N3CCOCC3)cc2OC)ncc1Cl (2.5 µM)
0: all assays above

Cn1cc2cc(C(F)(F)c3nnc4ccc(-c5cnn(C6CC6)c5)nn34)c(F)cc2n1 [Bozitinib] (10 µM)
0: all assays above

CN1CC[C@@H](c2c(O)cc(O)c3c(=O)cc(-c4ccc(C(F)(F)F)cc4Cl)oc23)[C@@H]1CO [Voruciclib (hydrochloride)] (10 µM)
0: all assays above

CCN(CC)c1ccc2cc(-c3nc4cc(C)ccc4o3)c(=O)oc2c1 (10 µM)
0: all assays above
